Data from the supplement of paper PMC4749390.
Counter-ions that a name gives are not always drawn. This is one part of the list. Repeats in this data set agree poorly, so a single value says little.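 Wild-type human LRH-1, a heavily sumoylated nuclear receptor, is tetracycline-inducible in stable JEG3 cells. RT-qPCR measured SUMO-sensitive APOC3 and MUC1 transcripts, which rise with SUMO-less LRH-1 or UBC9 knockdown, versus TBP and DMSO controls. Robust Z-scores beyond ±2 flagged primary hits, followed by toxicity and TBP filtering.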

Each compound was assayed on JEG3 expressing hLRH-1 (assay: MUC1 transcript change (ddCt vs TBP and DMSO), Z-score over library; higher = higher MUC1 expression). Conditions: 10 µM; time (hr): 24.

Question: For `C[C@H]1COc2c(C3(N)CC3)c(F)cc3c(=O)c(C(=O)O)cn1c23` [pazufloxacin mesylate], which “MUC1 transcript change (Z-score)” value is on record?
Answer: -0.852

Question: How did the “MUC1 transcript change (Z-score)” value turn out when `CCC(C)[C@H]1O[C@]2(C=C[C@@H]1C)C[C@@H]1C[C@@H](C/C=C(\C)[C@@H](OC3C[C@H](OC)C(O[C@H]4C[C@H](OC)[C@@H](NC(C)=O)[C@H](C)O4)[C@H](C)O3)[C@@H](C)/C=C/C=C3\CO[C@@H]4[C@H](O)C(C)=C[C@@H](C(=O)O1)[C@]34O)O2` (stereo partly drawn) [eprinomectin] was run?
Answer: -0.581

Question: How did the “MUC1 transcript change (Z-score)” value turn out when `CCCCCCc1ccc(O)cc1O` [hexylresorcinol] was run?
Answer: 0.365

Question: Which “MUC1 transcript change (Z-score)” value does the source give for `O=C(O)c1ccc[n+]([O-])c1` [oxiniacic acid] here?
Answer: -0.56

Question: How did the “MUC1 transcript change (Z-score)” value turn out when `O=C1CCc2ccc(OCCCCN3CCN(c4cccc(Cl)c4Cl)CC3)cc2N1` [aripiprazole] was run?
Answer: 0.298

Question: `COC(=O)[C@@H]1[C@H]2C[C@H]3c4[nH]c5ccccc5c4CCN3C[C@@H]2CC[C@@H]1O` [yohimbine hydrochloride] was tested. Which “MUC1 transcript change (Z-score)” value did it give?
Answer: 0.698

Question: How did the “MUC1 transcript change (Z-score)” value turn out when `C[C@]12C=CC(=O)C=C1CC[C@@H]1[C@@H]2[C@@H](O)C[C@@]2(C)[C@H]1CC[C@]2(O)C(=O)COC(=O)CCC(=O)O` [prednisolone hemisuccinate] was run?
Answer: -0.0641

Question: For `CO[C@@H]1[C@@H](O[C@@H]2O[C@H](C)[C@@H](O[C@H]3C[C@@](C)(O)[C@H](O)[C@H](C)O3)[C@H](N(C)C)[C@H]2O)[C@@H](CC=O)C[C@@H](C)[C@@H](O[C@H]2CC[C@H](N(C)C)[C@@H](C)O2)/C=C/C=C/C[C@H](C)OC(=O)C[C@H]1O` [spiramycin], which “MUC1 transcript change (Z-score)” value is on record?
Answer: 0.628

Question: How did the “MUC1 transcript change (Z-score)” value turn out when `C[C@]12CC[C@@H]3c4ccc(O)cc4C[C@@H](CCCCCCCCCS(=O)CCCC(F)(F)C(F)(F)F)[C@H]3[C@@H]1CC[C@@H]2O` (stereo partly drawn) [fulvestrant] was run?
Answer: -0.348

Question: With `CCCCOc1cc(C(=O)NCCN(CC)CC)c2ccccc2n1` [dibucaine hydrochloride] as the compound, how does the “MUC1 transcript change (Z-score)” value read?
Answer: -0.773

Question: Which “MUC1 transcript change (Z-score)” value does the source give for `N=C(N)NCC1COC2(CCCCC2)O1` (stereo not drawn) [guanadrel sulfate] here?
Answer: 0.108

Question: For `COc1c(C)c2c(c(O)c1C/C=C(\C)CCC(=O)O)C(=O)OC2` [mycophenolic acid], which “MUC1 transcript change (Z-score)” value is on record?
Answer: 2.15

Question: For `CC(=O)OCC(=O)[C@@]12N=C(C)O[C@@H]1C[C@H]1[C@@H]3CCC4=CC(=O)C=C[C@]4(C)[C@H]3[C@@H](O)C[C@@]12C` [deflazacort], which “MUC1 transcript change (Z-score)” value is on record?
Answer: 0.00954

Question: For `CCN1CCCC(OC(=O)C(c2ccccc2)c2ccccc2)C1` (stereo not drawn) [piperidolate hydrochloride], which “MUC1 transcript change (Z-score)” value is on record?
Answer: 1.06

Question: `C1CCN2C[C@@H]3C[C@H](CN4CCCC[C@@H]34)[C@H]2C1` [sparteine sulfate] was tested. Which “MUC1 transcript change (Z-score)” value did it give?
Answer: -0.116

Question: Which “MUC1 transcript change (Z-score)” value does the source give for `CC(=O)Nc1ccc(CC(=O)O)cc1` [actarit] here?
Answer: -1.64

Question: How did the “MUC1 transcript change (Z-score)” value turn out when `CCCCCCCCCCCCC[N+](C)(C)Cc1ccccc1` [benzalkonium chloride] was run?
Answer: 0.936

Question: With `CN(C)[C@@H]1C(=O)C(C(=O)NCN2CCCC2)=C(O)[C@@]2(O)C(O)=C3C(=O)c4c(O)cccc4[C@@](C)(O)[C@H]3C[C@@H]12` [rolitetracycline] as the compound, how does the “MUC1 transcript change (Z-score)” value read?
Answer: 0.579

Question: `CC(C)Nc1ncccn1` [isaxonine] was tested. Which “MUC1 transcript change (Z-score)” value did it give?
Answer: 0.0805

Question: How did the “MUC1 transcript change (Z-score)” value turn out when `CC(C)(C)NC[C@H](O)c1ccc(O)c(CO)c1` [levalbuterol hydrochloride] was run?
Answer: 0.818

Question: `CN1C(C(=O)Nc2ccccn2)=C(O)c2sccc2S1(=O)=O` [tenoxicam] was tested. Which “MUC1 transcript change (Z-score)” value did it give?
Answer: -0.0631

Question: Which “MUC1 transcript change (Z-score)” value does the source give for `CCCCNC(=O)NS(=O)(=O)c1ccc(C)cc1` [Tolbutamide] here?
Answer: -0.487

Question: With `CC(=O)[C@H]1CC[C@H]2[C@@H]3C[C@H](C)C4=CC(=O)CC[C@]4(C)[C@H]3[C@@H](O)C[C@]12C` [medrysone] as the compound, how does the “MUC1 transcript change (Z-score)” value read?
Answer: -1.69

Question: `CCCCCCCCCCOc1cc2c(O)c(C(=O)OCC)cnc2cc1OCC` [decoquinate] was tested. Which “MUC1 transcript change (Z-score)” value did it give?
Answer: 0.33

Question: With `CCc1cccc2c3c([nH]c12)C(CC)(CC(=O)O)OCC3` (stereo not drawn) [etodolac] as the compound, how does the “MUC1 transcript change (Z-score)” value read?
Answer: 0.183

Question: Which “MUC1 transcript change (Z-score)” value does the source give for `O=S(=O)(O)c1cc(I)c(O)c2ncccc12` [chiniofon] here?
Answer: 0.916

Question: `Cc1cnc(C(=O)NCCc2ccc(S(=O)(=O)NC(=O)NC3CCCCC3)cc2)cn1` [Glipizide] was tested. Which “MUC1 transcript change (Z-score)” value did it give?
Answer: 0.00505

Question: Which “MUC1 transcript change (Z-score)” value does the source give for `NC[C@H]1O[C@H](O[C@H]2[C@H](O)[C@@H](O[C@H]3O[C@H](CO)[C@@H](O)[C@H](N)[C@H]3O)[C@H](N)C[C@@H]2N)[C@H](N)C[C@@H]1O` [tobramycin] here?
Answer: -0.191

Question: Which “MUC1 transcript change (Z-score)” value does the source give for `CCc1nc(N)nc(N)c1-c1ccc(Cl)cc1` [pyrimethamine] here?
Answer: -0.356

Question: `OC[C@H]1O[C@@H](O[C@H]2[C@H](O)[C@@H](O)[C@@H](O)O[C@@H]2CO)[C@H](O)[C@@H](O)[C@H]1O` [lactose monohydrate] was tested. Which “MUC1 transcript change (Z-score)” value did it give?
Answer: 0.933

Question: `COc1ccc(-c2cc(=O)c3c(O)cc(O[C@@H]4O[C@H](CO[C@@H]5O[C@@H](C)[C@H](O)[C@@H](O)[C@H]5O)[C@@H](O)[C@H](O)[C@H]4O)cc3o2)cc1O` [diosmin] was tested. Which “MUC1 transcript change (Z-score)” value did it give?
Answer: 0.337

Question: How did the “MUC1 transcript change (Z-score)” value turn out when `CCN(CC)CCOC(=O)C(c1ccccc1)C1CCCCC1` (stereo not drawn) [drofenine hydrochloride] was run?
Answer: 0.633

Question: For `COc1ccc(C(=O)c2ccc(C)cc2)c(O)c1` [mexeneone], which “MUC1 transcript change (Z-score)” value is on record?
Answer: -0.104

Question: `Clc1ccc(COC(Cn2ccnc2)c2ccc(Cl)cc2Cl)cc1` (stereo not drawn) [econazole nitrate] was tested. Which “MUC1 transcript change (Z-score)” value did it give?
Answer: -0.313

Question: `NC(=O)NC(=O)Cc1ccccc1` [phenacemide] was tested. Which “MUC1 transcript change (Z-score)” value did it give?
Answer: -0.7

Question: Which “MUC1 transcript change (Z-score)” value does the source give for `OC[C@@H](O)[C@@H](O[C@@H]1O[C@H](CO)[C@H](O)[C@H](O)[C@H]1O)[C@H](O)[C@@H](O)CO` [lacitol] here?
Answer: -0.265

Question: With `C[n+]1ccccc1/C=N/O` [Pralidoxime iodide] as the compound, how does the “MUC1 transcript change (Z-score)” value read?
Answer: 0.127

Question: Which “MUC1 transcript change (Z-score)” value does the source give for `O=C(O)c1ccccc1` [benzoic acid] here?
Answer: 0.418

Question: `Cc1cc(C(C)(C)CC(C)(C)C)ccc1OCCOCC[N+](C)(C)Cc1ccccc1` [methylbenzethonium chloride] was tested. Which “MUC1 transcript change (Z-score)” value did it give?
Answer: 0.582

Question: For `CC(C)[C@H](NC(=O)[C@H](CC(=O)O)NC(=O)[C@H](CCCCN)NC(=O)[C@@H](N)CCCN=C(N)N)C(=O)N[C@@H](Cc1ccc(O)cc1)C(=O)O` [thymopentin], which “MUC1 transcript change (Z-score)” value is on record?
Answer: 0.986

Question: `CC(=O)[C@H]1CCC2C3CC=C4C[C@@H](O)CC[C@]4(C)C3CC[C@@]21C` (stereo partly drawn) [pregnenolone] was tested. Which “MUC1 transcript change (Z-score)” value did it give?
Answer: 0.195

Question: For `Cc1cc(NC(=O)C2=C(O)c3ccccc3S(=O)(=O)N2C)no1` [isoxicam], which “MUC1 transcript change (Z-score)” value is on record?
Answer: -0.903

Question: Which “MUC1 transcript change (Z-score)” value does the source give for `COc1cnc(NS(=O)(=O)c2ccc(N)cc2)nc1` [sulfameter] here?
Answer: -0.313
